Non-standard residues stand in square brackets, D forms with d. *: point of attachment. His(Trt) = N[C@@H](Cc1cn(C(c2ccccc2)(c2ccccc2)c2ccccc2)cn1)C(=O)O; Pbf = Cc1c(C)c(S(=O)(=O)*)c(C)c2c1OC(C)(C)C2; Fmoc = O=C(OCC1c2ccccc2-c2ccccc21)*; Boc = CC(C)(C)OC(=O)*; Aib = CC(C)(N)C(=O)O; OtBu = CC(C)(C)O*; tBu = CC(C)(C)*
Key:
[1] = general procedure: hybrid (solid and solution phase) peptide synthesis; CTC resin (2-chlorotrityl chloride resin); DIC/oxyma; EDC·HCl/NMM for Gly-OtBu; details: whole synthesis, RP-HPLC, confirmed by MALDI or LC-MS, scale of the general procedure CTC resin 50 grams (20 grams in some preparations)
[2] = general procedure: hybrid (solid and solution phase) peptide synthesis; CTC resin; DIC/oxyma; EDC·HCl/NMM for Gly-OtBu; details: whole synthesis, scale of the general procedure CTC resin 50 grams (20 grams in some preparations); for crude purity (method not given): RP-HPLC, confirmed by MALDI or LC-MS

Substance | crude HPLC purity [1] | crude purity (method not given) [2] | crude yield [2] | final HPLC purity [1]
Boc-[His(Trt)][Aib]E(OtBu)G-OH | 96% | 97.02% | 92.5% | –
Fmoc-Gln(Trt)-Ala-Ala-Lys(PEG-PEG-γ-Glu-octadecane dioic acid)-Glu(OtBu)-Phe-Ile-Ala-Trp(Boc)-OH | – | 92.1% | 95.0% | –
Fmoc-S(tBu)Y(tBu)LE(OtBu)G-OH | – | 98.33% | 96.6% | –
Fmoc-Thr(tBu)-Phe-Thr(tBu)-Ser(tBu)-Asp(OtBu)-Val-Ser(Oxa)-OH | – | 99.42% | 99.42% | –
H-LVR(Pbf)GR(Pbf)G-OtBu | – | 96% | 74% | –
Semaglutide | – | – | – | 97.2%

Reference: patent US20230220036 (published 2023)
